Source: article PMC8908937
Results are given in words; binding and its absence hold for the method and conditions named. In cells and extracts the contact can be indirect. Some entries that bind do so weakly or less than the wild type.

By UniProt entry, the sequences of proteins in these tests, tags left out.
UniProt P14618: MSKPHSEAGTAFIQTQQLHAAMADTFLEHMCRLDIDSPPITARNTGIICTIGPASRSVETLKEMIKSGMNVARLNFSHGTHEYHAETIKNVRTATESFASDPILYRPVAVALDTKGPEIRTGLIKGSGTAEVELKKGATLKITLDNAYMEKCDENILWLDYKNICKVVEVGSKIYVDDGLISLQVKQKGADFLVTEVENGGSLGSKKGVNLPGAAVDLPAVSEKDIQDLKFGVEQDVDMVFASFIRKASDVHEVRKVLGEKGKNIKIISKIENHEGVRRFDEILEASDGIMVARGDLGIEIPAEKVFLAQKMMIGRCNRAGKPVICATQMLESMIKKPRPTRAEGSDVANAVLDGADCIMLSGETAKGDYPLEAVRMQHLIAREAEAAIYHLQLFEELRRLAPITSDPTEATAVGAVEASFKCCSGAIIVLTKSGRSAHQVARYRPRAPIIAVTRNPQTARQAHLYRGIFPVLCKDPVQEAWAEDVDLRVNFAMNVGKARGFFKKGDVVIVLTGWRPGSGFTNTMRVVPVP

Molecular target: T1, MKRN2 (human) (UniProt Q9H000)
T1 sequence: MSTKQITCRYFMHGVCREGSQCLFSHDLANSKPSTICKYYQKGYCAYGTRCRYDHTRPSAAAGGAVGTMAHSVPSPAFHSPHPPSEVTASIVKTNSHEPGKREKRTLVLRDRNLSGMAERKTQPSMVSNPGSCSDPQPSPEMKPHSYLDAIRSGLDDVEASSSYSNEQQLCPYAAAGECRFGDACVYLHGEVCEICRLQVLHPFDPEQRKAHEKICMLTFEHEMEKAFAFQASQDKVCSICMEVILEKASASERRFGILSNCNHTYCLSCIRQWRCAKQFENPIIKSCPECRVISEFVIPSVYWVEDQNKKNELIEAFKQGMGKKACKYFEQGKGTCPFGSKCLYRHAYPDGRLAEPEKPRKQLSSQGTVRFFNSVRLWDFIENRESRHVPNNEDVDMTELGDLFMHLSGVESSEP
Experiment: co-IP; gastric cells resuspended in 1 ml lysis buffer; MKRN2 and PKM2 immunoprecipitated with 1 ug of the respective antibody, IgG (1 ug) as control; western blot with anti-MKRN2 and anti-PKM2

binding: binds
Substance: Pyruvate kinase muscle isoform 2 (PKM2) (from UniProt P14618 1-531)
